Laboratory results from paper PMC4260917, “Defective FANCI Binding by a Fanconi Anemia-Related FANCD2 Mutant” (PLoS ONE, 2014).
These are yes or no findings as the source states them, for the method shown. In cells and extracts the contact can be indirect. Some binding calls cover weakened binding; strength is not graded here.

Sequences of proteins named here, by UniProt entry; tags and fusion partners are left off.
UniProt Q68Y81: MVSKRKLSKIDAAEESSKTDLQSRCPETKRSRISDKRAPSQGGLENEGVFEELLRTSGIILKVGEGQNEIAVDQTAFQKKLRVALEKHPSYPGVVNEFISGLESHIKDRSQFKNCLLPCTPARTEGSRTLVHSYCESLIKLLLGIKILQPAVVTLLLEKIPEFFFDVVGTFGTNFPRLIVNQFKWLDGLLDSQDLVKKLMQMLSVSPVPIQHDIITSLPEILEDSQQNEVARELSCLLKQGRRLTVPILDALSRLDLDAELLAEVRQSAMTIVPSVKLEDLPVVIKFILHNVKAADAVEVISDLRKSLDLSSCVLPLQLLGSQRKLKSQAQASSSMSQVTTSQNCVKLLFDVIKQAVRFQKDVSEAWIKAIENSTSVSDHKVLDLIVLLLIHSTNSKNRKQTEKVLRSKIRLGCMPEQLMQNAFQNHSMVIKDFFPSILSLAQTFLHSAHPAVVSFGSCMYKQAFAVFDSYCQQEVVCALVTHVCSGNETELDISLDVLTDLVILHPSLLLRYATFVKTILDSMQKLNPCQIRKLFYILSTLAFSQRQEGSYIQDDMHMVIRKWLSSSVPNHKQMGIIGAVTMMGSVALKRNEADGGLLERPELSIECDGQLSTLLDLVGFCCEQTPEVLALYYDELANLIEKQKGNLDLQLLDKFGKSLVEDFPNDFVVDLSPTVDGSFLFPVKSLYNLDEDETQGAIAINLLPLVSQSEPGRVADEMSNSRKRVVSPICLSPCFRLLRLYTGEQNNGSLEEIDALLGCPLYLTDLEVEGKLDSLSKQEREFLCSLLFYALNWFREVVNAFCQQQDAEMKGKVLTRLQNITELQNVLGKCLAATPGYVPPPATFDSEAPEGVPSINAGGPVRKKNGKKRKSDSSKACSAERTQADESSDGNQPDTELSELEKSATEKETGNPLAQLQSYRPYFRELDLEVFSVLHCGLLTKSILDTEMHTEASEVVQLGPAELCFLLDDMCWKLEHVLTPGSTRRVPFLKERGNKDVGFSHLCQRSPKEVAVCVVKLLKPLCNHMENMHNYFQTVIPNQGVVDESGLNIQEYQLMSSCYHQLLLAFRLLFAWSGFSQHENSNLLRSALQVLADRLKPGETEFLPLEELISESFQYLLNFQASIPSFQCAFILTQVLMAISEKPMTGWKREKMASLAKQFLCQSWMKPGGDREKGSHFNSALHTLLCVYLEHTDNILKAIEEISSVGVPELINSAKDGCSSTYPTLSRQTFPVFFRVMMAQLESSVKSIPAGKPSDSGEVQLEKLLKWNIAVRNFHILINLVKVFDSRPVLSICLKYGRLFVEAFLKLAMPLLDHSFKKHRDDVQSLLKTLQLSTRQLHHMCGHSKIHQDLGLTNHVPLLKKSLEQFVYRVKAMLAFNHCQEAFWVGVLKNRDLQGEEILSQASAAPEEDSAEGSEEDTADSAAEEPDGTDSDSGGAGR

Target: GFP-fused wild type chicken FANCD2 expressed in FANCD2-/- DT40 cells (chicken) (UniProt Q68Y81)
Assay: co-IP; anti-GFP beads on lysates of DT40 cells producing GFP-cFANCD2; lysis buffer 20 mM Tris-HCl (pH 7.5), 150 mM NaCl, 0.5% NP-40; lysates treated with Benzonase; western blot with anti-chicken FANCD2 and FANCI antibodies; called a cell-based pull-down assay

binding: binds
B1: chicken FANCI, wild type, purified recombinant (natural protein, UniProt B0I564 1-1338, looked up)
chain: MAQRILQLAAEGSPERLQEALQGLTEGELGDMVTRQALRGRETAALLKGIFKGSPCSQQSGVLRRLQVYKHCVSLVESGDLHVGKVSEIIGLLMLEARQLPGHALAELATLFVEVIKRGSLSNGKSLELFSTVLTALSNSKESLAYGKGELNGEEFKKQLINTLCSSKWDPQCVIHLANMFRDIPLSGEELQFVVEKVLRMFSKLDLQEIPPLVYQLLLLSAKGSKKTVLEGIISFFNQLDKRQKEEQRVPQSADLEVATVPLDQLRHVEGTVILHIVSAINLDQDIGEELIKHLKTEQQKDPGKALCPFSVSLLLSTAVKHRLQEQIFDFLKTSITRSCKDLQILQASKFLQDLCPQQYDVTAVILEVVKNSAFGWDHVTQGLVDLGFSLMESYEPKKSFGGKAAETNLGLSKMPAQQACKLGASILLETFKVHEPIRSDILEQVLNRVLTKAASPVSHFIDLLSNIVVSAPLVLQNSSSRVTETFDNLSFLPIDTVQGLLRAVQPLLKVSMSVRDSLILVLQKAIFSRQLDARKAAVAGFLLLLRNFKILGSLTSSQCSQAIGATQVQADVHACYNSAANEAFCLEILGSLRRCLSQQADVRLMLYEGFYDVLRRNSQLASSIMETLLSQIKQYYLPQQDLLPPLKLEGCIMAQGDQIFLQEPLAHLLCCIQHCLAWYKSTVHLCKGAEDEEEEEDVGFEQNFEEMLESVTRRMIKSELEDFELDKSADFSPSSGVGVKNNIYAIQVMGICEVLIEYNFKIGNFSKNKFEDVLGLFTCYNKLSEILKEKAGKNKSTLGNRIARSFLSMGFVSTLLTALFRDNAQSHEESLAVLRSSTEFMRYAVSVALQKVQQLEEMGQTDGPDGQNPEKMFQNLCKITRVLLWRYTSIPTAVEESGKKKGKSISLLCLEGLLRIFNTMQQLYAARIPQFLQALDITDGDAEEADINVTEKAAFQIRQFQRSLVNQLSSAEDDFNSKETQLLITILSTLSKLLDPGSQQFLQFLTWTVKICKENALEDLSCCKGLLTLLFSLHVLYKSPVSLLRELAQDIHACLGDIDQDVEIESRSHFAIVNVKTAAPTVCLLVLGQADKVLEEVDWLIKRLTILGSDTSEDSTQASNQTQALEKGVILQLGTLLTVFHELVQTALPAGSCVDSLLRSLSKTYAILTSLIKHYIQACRSTSNTVPGRLEKLVKLSGSHLTPQCYSFITYVQNIHSESLSFAEEKKKKKKEDETAVVSTVMAKVLRDTKPIPNLIFAIEQYEKFLIHLSKKSKVNLMQYMKLSTSRDFRINASMLDSVLQEQNTEDAENEPDNNQSGTAEQPDENQEPQKKRRRKK
notes: FANCI, chicken (Gallus gallus); also called cFANCI; WT cFANCI; source: E. coli BL21(DE3) codon(+)RIL, purified
